# The other results are listed elsewhere or left out. The calls rarely recur for the same compound in another form.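 Kinases were expressed as nanoluciferase fusions in K562 cells and luminescence was read every 4 h between 2 and 18 h as percent of control, DMSO set to 100% and a positive control to 0%. A time point counts as decreased when the signal drops significantly (2 sigma). The hit call is the authors' own, does not follow from the count of time points alone, and its rule is not shown.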
# The chains behind the UniProt entries cited, without tags or fusion partners. Where a name states a change or a piece, a line headed by the entry shows the natural chain unless it says otherwise.
# UniProt P36888, whole entry: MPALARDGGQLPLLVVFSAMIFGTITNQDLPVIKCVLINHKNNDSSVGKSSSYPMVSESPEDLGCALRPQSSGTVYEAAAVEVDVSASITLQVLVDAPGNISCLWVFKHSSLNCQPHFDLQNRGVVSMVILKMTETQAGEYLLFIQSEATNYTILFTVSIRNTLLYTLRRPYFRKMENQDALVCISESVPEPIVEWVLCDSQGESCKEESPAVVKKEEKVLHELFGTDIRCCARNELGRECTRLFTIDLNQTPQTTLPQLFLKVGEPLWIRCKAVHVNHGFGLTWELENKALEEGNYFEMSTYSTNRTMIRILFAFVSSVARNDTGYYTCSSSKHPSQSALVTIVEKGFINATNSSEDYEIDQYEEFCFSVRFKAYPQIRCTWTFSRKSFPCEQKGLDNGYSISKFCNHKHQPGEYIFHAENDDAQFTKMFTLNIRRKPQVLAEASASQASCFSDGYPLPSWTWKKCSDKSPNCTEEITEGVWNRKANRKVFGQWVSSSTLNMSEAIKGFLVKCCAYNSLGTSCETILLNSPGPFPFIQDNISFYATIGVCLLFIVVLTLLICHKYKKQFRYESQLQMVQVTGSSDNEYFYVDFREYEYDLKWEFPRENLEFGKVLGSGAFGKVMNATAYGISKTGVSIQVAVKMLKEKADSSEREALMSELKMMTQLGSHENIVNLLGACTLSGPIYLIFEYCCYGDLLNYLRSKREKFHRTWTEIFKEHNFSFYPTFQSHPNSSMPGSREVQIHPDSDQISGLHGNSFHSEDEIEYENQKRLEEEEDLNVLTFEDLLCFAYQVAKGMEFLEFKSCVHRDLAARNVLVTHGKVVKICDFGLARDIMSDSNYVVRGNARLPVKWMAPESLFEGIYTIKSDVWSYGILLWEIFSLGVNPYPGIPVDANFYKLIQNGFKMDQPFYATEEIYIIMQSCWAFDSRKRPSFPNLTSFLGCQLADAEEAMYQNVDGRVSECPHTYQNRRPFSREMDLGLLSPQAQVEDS
# UniProt P06241, whole entry, looked up: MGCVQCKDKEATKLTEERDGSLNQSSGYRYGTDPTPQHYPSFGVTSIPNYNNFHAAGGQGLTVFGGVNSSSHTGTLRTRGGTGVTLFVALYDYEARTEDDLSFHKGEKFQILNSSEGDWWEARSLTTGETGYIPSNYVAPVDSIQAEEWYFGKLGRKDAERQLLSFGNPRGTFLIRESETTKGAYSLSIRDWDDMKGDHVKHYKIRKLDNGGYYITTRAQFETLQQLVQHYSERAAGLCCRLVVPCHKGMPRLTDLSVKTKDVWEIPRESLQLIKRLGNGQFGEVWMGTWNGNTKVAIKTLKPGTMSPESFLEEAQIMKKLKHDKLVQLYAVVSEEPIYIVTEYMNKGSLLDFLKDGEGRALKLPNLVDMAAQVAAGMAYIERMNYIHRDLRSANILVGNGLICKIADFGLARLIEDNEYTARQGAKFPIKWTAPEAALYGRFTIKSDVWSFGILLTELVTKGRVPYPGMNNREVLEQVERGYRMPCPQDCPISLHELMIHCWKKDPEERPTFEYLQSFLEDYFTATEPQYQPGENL
# UniProt P49840: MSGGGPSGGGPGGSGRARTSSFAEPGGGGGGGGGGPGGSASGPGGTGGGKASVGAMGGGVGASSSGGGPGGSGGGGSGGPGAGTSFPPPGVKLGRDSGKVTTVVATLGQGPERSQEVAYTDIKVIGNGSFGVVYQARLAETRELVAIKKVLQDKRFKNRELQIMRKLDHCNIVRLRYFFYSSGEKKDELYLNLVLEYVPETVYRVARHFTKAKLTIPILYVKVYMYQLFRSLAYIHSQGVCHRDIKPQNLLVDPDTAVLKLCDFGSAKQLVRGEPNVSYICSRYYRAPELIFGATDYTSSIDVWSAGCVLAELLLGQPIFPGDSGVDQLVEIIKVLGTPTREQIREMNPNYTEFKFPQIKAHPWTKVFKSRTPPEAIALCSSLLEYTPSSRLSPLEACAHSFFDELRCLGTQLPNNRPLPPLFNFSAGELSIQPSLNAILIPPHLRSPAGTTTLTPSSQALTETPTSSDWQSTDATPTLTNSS
# UniProt Q9Y616: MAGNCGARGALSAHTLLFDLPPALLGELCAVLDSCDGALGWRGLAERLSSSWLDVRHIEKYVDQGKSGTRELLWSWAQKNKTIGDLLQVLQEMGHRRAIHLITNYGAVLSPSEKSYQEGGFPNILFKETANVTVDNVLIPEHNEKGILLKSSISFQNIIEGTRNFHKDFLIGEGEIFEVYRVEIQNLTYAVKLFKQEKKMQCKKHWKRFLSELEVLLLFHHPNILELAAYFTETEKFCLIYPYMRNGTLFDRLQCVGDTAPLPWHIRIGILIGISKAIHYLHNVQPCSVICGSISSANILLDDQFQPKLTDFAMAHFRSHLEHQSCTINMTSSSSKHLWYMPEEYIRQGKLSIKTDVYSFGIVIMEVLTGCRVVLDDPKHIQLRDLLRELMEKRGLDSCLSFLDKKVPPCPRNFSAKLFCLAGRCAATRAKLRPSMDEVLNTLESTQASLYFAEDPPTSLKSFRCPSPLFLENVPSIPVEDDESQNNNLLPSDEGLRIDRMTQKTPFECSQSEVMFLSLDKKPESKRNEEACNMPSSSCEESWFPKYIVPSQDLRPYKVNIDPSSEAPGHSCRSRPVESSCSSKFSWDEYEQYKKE
# UniProt P06239: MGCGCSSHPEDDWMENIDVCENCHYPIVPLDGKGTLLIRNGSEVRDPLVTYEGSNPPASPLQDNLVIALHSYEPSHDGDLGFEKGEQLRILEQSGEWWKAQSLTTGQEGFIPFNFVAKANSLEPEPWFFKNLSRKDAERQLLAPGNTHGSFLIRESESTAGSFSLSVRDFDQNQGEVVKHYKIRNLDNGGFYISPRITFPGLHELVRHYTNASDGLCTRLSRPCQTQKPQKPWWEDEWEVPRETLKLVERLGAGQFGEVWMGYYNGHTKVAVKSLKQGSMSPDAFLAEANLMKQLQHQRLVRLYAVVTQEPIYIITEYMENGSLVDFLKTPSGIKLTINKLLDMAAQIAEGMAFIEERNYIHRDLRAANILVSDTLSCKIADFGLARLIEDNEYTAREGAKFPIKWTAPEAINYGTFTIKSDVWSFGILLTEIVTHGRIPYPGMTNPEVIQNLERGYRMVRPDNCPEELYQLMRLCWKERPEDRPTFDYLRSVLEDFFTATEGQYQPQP
# UniProt P07948: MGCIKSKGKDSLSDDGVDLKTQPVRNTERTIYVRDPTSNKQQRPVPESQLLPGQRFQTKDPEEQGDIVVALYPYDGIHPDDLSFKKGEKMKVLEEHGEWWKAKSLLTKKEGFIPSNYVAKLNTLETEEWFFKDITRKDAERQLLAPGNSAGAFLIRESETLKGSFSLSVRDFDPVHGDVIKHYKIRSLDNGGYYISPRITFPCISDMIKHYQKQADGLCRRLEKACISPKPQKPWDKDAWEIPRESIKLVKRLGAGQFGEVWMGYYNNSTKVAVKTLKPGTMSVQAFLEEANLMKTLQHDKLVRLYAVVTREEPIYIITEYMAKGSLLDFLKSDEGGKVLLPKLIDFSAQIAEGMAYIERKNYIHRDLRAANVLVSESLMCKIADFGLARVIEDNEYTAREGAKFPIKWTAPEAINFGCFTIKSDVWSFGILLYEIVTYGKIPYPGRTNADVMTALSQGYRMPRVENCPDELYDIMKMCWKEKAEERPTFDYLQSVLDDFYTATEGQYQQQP
# UniProt Q12851: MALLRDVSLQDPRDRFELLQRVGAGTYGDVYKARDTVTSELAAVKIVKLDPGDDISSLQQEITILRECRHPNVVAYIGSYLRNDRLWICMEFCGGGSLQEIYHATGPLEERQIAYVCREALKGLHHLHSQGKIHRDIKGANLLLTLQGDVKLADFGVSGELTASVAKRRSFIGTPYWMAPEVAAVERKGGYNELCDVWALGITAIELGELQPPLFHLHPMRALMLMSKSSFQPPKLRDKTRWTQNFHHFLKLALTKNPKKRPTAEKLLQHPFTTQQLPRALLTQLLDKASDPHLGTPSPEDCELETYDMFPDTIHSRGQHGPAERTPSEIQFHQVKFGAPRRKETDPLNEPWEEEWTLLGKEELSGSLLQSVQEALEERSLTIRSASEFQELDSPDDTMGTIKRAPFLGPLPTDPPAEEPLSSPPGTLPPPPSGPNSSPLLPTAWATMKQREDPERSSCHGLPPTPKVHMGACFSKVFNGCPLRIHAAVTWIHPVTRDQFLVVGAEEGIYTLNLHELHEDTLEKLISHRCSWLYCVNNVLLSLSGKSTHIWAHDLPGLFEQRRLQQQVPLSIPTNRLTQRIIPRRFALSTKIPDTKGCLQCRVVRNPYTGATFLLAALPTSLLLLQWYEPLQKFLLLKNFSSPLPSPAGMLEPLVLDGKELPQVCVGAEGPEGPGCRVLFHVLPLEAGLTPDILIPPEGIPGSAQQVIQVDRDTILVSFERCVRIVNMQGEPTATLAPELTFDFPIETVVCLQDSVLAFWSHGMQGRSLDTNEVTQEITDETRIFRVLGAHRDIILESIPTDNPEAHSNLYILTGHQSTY
# UniProt P28482, whole entry: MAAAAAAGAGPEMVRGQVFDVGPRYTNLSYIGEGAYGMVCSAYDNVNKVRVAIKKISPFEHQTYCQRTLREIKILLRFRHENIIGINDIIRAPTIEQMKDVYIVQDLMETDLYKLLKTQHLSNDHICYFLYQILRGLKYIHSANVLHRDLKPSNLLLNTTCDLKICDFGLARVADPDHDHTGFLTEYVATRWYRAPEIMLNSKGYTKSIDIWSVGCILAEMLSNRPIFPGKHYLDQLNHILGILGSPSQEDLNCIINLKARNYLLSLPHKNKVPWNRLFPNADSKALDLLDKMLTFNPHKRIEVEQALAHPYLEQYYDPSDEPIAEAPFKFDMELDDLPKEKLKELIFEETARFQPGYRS
# UniProt P49137, whole entry, looked up: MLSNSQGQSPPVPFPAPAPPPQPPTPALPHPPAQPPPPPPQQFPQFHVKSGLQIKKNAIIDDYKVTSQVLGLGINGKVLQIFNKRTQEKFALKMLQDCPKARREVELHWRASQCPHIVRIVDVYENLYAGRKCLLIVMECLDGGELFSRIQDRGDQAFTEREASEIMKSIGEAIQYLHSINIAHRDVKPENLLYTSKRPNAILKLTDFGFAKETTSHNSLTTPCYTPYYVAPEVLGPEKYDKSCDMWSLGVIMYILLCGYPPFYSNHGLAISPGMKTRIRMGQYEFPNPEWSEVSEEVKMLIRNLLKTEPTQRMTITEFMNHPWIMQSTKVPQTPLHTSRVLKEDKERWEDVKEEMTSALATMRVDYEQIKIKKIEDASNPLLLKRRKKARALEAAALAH
# UniProt Q9BUB5: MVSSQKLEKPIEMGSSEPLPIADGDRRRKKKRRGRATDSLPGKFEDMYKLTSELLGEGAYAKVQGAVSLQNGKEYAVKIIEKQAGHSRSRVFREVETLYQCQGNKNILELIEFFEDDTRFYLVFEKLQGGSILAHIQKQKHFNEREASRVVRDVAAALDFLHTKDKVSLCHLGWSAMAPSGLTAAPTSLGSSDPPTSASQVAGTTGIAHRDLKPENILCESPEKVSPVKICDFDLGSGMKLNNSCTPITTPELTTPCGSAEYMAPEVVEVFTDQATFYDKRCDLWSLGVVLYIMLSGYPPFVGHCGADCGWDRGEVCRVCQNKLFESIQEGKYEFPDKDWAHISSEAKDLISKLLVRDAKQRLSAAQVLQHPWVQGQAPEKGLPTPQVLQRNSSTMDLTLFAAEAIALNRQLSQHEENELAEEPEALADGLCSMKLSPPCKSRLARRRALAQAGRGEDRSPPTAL
# UniProt Q16620, whole entry, looked up: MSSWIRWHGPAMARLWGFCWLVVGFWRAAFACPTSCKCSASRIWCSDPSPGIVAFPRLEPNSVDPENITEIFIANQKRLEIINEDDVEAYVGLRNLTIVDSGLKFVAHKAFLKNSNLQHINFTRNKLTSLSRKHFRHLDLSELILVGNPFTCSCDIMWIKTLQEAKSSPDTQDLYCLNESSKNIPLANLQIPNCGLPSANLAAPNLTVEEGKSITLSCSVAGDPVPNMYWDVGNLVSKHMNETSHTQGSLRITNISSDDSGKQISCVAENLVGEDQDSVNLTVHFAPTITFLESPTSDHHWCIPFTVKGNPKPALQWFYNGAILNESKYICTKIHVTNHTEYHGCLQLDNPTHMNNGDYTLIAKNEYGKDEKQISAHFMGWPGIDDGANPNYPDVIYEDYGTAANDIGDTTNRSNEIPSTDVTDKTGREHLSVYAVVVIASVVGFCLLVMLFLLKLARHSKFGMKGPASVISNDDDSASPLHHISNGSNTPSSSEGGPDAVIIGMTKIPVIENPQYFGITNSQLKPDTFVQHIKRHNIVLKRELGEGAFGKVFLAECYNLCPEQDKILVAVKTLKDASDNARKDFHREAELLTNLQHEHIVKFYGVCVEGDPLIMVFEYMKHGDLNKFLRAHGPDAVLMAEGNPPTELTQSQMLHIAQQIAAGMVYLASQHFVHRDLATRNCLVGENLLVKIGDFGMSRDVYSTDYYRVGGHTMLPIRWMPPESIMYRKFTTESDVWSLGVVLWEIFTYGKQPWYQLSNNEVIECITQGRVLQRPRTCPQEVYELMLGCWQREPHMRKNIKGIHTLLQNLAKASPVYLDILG
# How the values were obtained:
# Assay in all cases: number of time points (of 5) at which kinase-Nluc abundance scored as decreased, DMSO-normalised (count); higher = more persistent destabilization
# Details in all cases: K562; 2-18 h
# FLT3 = FLT3 (UniProt P36888)
# FYN = FYN (UniProt P06241)
# GSK3A = GSK3A (UniProt P49840)
# HER2 = HER2 (UniProt P04626)
# INSRR = INSRR (UniProt P14616)
# IRAK3 = IRAK3 (UniProt Q9Y616)
# JAK1 = JAK1 (UniProt P23458)
# LCK = LCK (UniProt P06239)
# LIMK1 = LIMK1 (UniProt P53667)
# LIMK2 = LIMK2 (UniProt P53671)
# LMTK2 = LMTK2 (UniProt Q8IWU2)
# LYN = LYN (UniProt P07948)
# MAP2K1 = MAP2K1 (UniProt Q02750)
# MAP2K2 = MAP2K2 (UniProt P36507)
# MAP4K2 = MAP4K2 (UniProt Q12851)
# MAPK1 = MAPK1 (UniProt P28482)
# MAPK4 = MAPK4 (UniProt P31152)
# MAPKAPK2 = MAPKAPK2 (UniProt P49137)
# MKNK1 = MKNK1 (UniProt Q9BUB5)
# NTRK2 = NTRK2 (UniProt Q16620)
Structure (SMILES),number of time points (FLT3),number of time points (FYN),number of time points (GSK3A),number of time points (HER2),number of time points (INSRR),number of time points (IRAK3),number of time points (JAK1),number of time points (LCK),number of time points (LIMK1),number of time points (LIMK2),number of time points (LMTK2),number of time points (LYN),number of time points (MAP2K1),number of time points (MAP2K2),number of time points (MAP4K2),number of time points (MAPK1),number of time points (MAPK4),number of time points (MAPKAPK2),number of time points (MKNK1),number of time points (NTRK2)
COc1cc2ncnc(Nc3ccc(F)c(Cl)c3)c2cc1NC(=O)/C=C/CN1CCCCC1 [Dacomitinib] (10 µM),0,0,0,4,0,0,0,0,0,0,0,0,0,0,0,0,0,0,0,0
C=CCc1ccc(O)c(-c2ccc(O)c(CC=C)c2)c1 [Honokiol] (10 µM),0,0,0,0,0,0,0,0,0,0,0,0,0,0,0,0,0,0,0,0
CCc1cccc(CC)c1NC(=O)N1Cc2[nH]nc(NC(=O)c3ccc(N4CCN(C)CC4)cc3)c2C1 (2.5 µM),1,2,0,1,3,0,3,0,4,2,0,0,0,0,0,0,0,0,1,1
c1cc(NC2CCNCC2)nc(-c2cnc3ccccn23)c1 [IRAK inhibitor 1] (10 µM),0,0,0,0,0,0,0,0,0,0,0,0,0,0,0,0,0,0,0,0
O=[N+]([O-])c1ccc2c(c1)S(=O)(=O)C=C2 [Stattic] (2.5 µM),0,0,0,1,0,0,0,0,3,0,0,0,0,0,0,0,0,0,0,0
CC1(C)Cc2c(sc(NC(=S)NC(=O)c3ccccc3)c2C(=O)O)CO1 (10 µM),0,0,0,0,0,0,0,0,0,0,0,0,0,0,0,0,0,0,0,0
Cc1cnc(-c2ccc(-c3ccc(NC(=O)Nc4cccc(C(F)(F)F)c4)cc3F)c3c2C(=O)NC3)[nH]1 (10 µM),0,0,0,1,0,0,0,0,0,0,0,1,0,0,0,0,0,0,1,0
Cc1c(-c2ccc(C(N)=O)c3[nH]c4cc(C(C)(C)O)ccc4c23)cccc1-n1cnc2ccccc2c1=O (2.5 µM),0,0,0,0,0,0,0,0,0,0,0,0,0,0,0,0,0,0,0,0
O=C(N[C@@H](C1CC1)C(F)(F)F)c1cc(-c2cnn3cc(-c4ccc(F)cc4)cnc23)cs1 (10 µM),0,2,0,0,0,0,0,0,0,0,0,0,0,0,0,0,0,0,0,0
O[C@@H]1CO[C@H]2[C@@H]1OC[C@H]2Oc1nc2nc(-c3ccc(-c4ccccc4)cc3)c(Cl)cc2[nH]1 (10 µM),0,0,0,0,0,0,0,0,0,0,1,0,0,0,0,0,0,0,0,0
N#Cc1c2nc3ccccc3nc2n2ccc(NC(=O)c3cccs3)cc12 (10 µM),0,0,0,0,0,0,0,0,0,0,0,0,0,0,0,0,0,0,0,0
CC(C)CCNC(=O)c1ccc2c(c1)nc(Nc1n[nH]c3ccc(-c4ccccc4OC(F)(F)F)cc13)n2C1CCC(O)CC1 (stereo not drawn) [IRAK inhibitor 4 (trans)] (10 µM),0,0,0,0,0,0,0,0,0,0,0,0,0,0,0,0,0,0,0,0
CC(C)(C)n1nc(Cc2ccccc2O)c2c(N)ncnc21 (10 µM),0,0,0,0,0,0,0,0,0,0,0,0,0,0,0,0,0,0,0,0
CC(=O)N1CCC(c2cc(-c3ccc(NC(=O)c4cccn(-c5ccc(F)cc5)c4=O)cc3F)c3c(N)ncnn23)CC1 (0.5 µM),0,0,0,0,0,0,0,0,0,0,0,0,0,0,0,0,0,0,0,0
N#CC(c1ccnc(OCc2ccc(CN3CCOCC3)cc2)n1)c1nc2ccccc2s1 (stereo not given) [Bentamapimod] (2.5 µM),0,0,0,0,0,0,0,0,0,0,0,0,0,0,0,0,0,0,0,0
CC(=O)c1c(C)c2cnc(Nc3ccc(N4CCN(C(=O)CNc5cccc6c5C(=O)N(C5CCC(=O)NC5=O)C6=O)CC4)cn3)nc2n(C2CCCC2)c1=O (stereo not given) (10 µM),0,0,0,0,0,0,0,0,0,0,0,0,0,0,0,0,0,0,0,0
COc1cc2ncnc(Nc3ccccc3)c2cc1OC (10 µM),0,5,0,0,0,0,0,0,0,0,0,0,0,0,0,0,0,0,0,0
COc1cc(N2CCOCC2)ccc1NC(=O)c1csc(-c2cccnc2)n1 [IRAK inhibitor 6] (10 µM),0,0,0,0,0,0,0,0,0,0,0,0,0,0,0,0,0,0,0,0
COc1ccc(-c2coc3cc(O)ccc3c2=O)cc1 [Formononetin] (10 µM),0,1,0,0,0,0,0,0,0,0,0,0,0,0,0,0,0,0,0,0
C[C@H](NC(=O)[C@H]1NCC[C@@H]1O)c1ccc(-c2noc(CCC3CCCC3)n2)cc1 (10 µM),0,0,0,0,0,0,0,0,0,0,0,0,0,0,0,0,0,0,0,0
CC(C)C[C@@H](C(=O)Nc1ccn(C[C@@H](O)CO)n1)N1CC(Oc2ccccc2Cl)=CC1=O [Dorzagliatin] (10 µM),0,0,0,0,0,0,0,0,0,0,0,0,0,0,0,0,0,0,0,0
COc1cc(/C=C/C(=O)N2CCC=CC2=O)cc(OC)c1OC [Piperlongumine] (2.5 µM),0,2,0,4,2,2,0,0,2,1,4,0,0,0,0,0,1,0,1,0
C=CC(=O)Nc1cccc(CNc2nc(Nc3ccc(N4CCN(C)CC4)cc3OC)ncc2Cl)c1 (10 µM),0,0,0,0,0,0,0,0,0,0,0,0,0,0,0,0,0,0,0,0
CC(C)c1cc(/C=C(\C#N)C(=O)NCCCc2ccccc2)cc(C(C)C)c1O (10 µM),0,0,0,0,0,0,0,0,0,0,0,0,0,0,0,0,0,0,0,0
Cn1ncc2cc(-c3cnc(N)c(Cl)c3N3CCC4(CCNC4=O)CC3)ccc21 (10 µM),0,0,0,0,0,0,0,0,0,0,0,0,0,0,0,0,0,0,0,0

# Two entries from above in another layout.
Structure (SMILES) | number of time points (FLT3) | number of time points (FYN) | number of time points (GSK3A) | number of time points (HER2) | number of time points (INSRR) | number of time points (IRAK3) | number of time points (JAK1) | number of time points (LCK) | number of time points (LIMK1) | number of time points (LIMK2) | number of time points (LMTK2) | number of time points (LYN) | number of time points (MAP2K1) | number of time points (MAP2K2) | number of time points (MAP4K2) | number of time points (MAPK1) | number of time points (MAPK4) | number of time points (MAPKAPK2) | number of time points (MKNK1) | number of time points (NTRK2)
N#CC(c1ccnc(OCc2ccc(CN3CCOCC3)cc2)n1)c1nc2ccccc2s1 (stereo not given) [Bentamapimod] (2.5 µM) | 0 | 0 | 0 | 0 | 0 | 0 | 0 | 0 | 0 | 0 | 0 | 0 | 0 | 0 | 0 | 0 | 0 | 0 | 0 | 0
CC(=O)c1c(C)c2cnc(Nc3ccc(N4CCN(C(=O)CNc5cccc6c5C(=O)N(C5CCC(=O)NC5=O)C6=O)CC4)cn3)nc2n(C2CCCC2)c1=O (stereo not given) (10 µM) | 0 | 0 | 0 | 0 | 0 | 0 | 0 | 0 | 0 | 0 | 0 | 0 | 0 | 0 | 0 | 0 | 0 | 0 | 0 | 0

# — the supplement of paper PMC12823440, “Inhibitors supercharge kinase turnover through native proteolytic circuits” (Nature, 2025)
